Values joined by “and” are separate entries in the source; they are usually repeats but may differ in a detail not shown here. Equal entries are not always repeated. The list shows a part of the results. Measured potencies and affinities stand elsewhere. Where no call is shown, the source marks the result inconclusive.
Experiment: suppressors of mutant SOD1 cell death (AID 1601)
Details: mutant SOD1 cell death rescue, 1 uM; stronger effect = higher value
`CC[C@H]1OC(=O)[C@H](C)[C@@H](O[C@H]2C[C@@](C)(OC)[C@@H](O)[C@H](C)O2)[C@H](C)[C@@H](O[C@@H]2O[C@H](C)C[C@H](N(C)C)[C@H]2O)[C@](C)(O)C[C@@H](C)/C(=N\OCOCCOC)[C@H](C)[C@@H](O)[C@]1(C)O` showed a protection of 1.55%.
With `CN(C)CCCN1c2ccccc2CCc2ccccc21` the protection was -26.7%.
Work on `Cc1c(NC(=O)c2cccnc2)c(=O)n(-c2ccccc2)n1C` yielded a protection of -2.52%.
With `CCCOc1ccccc1-c1nc2n[nH]nc2c(=O)[nH]1` the protection was 11.8%.
Work on `O=C(O)c1cc(=O)c2c(OCC(O)COc3cccc4oc(C(=O)O)cc(=O)c34)cccc2o1` yielded a protection of -20.2%.
Work on `Nc1ncnc2c1ncn2[C@@H]1O[C@H](CO)[C@@H](O)[C@@H]1O` yielded a protection of -23.9%.
`Clc1ccccc1C(c1ccccc1)(c1ccccc1)n1ccnc1` gave a protection of -40%.
In the case of `CCn1cc(C(=O)O)c(=O)c2cnc(N3CCNCC3)nc21`, the protection is reported as -13.2%.
For `COc1cc(OC)c2ccc(=O)oc2c1`, the protection was -3.21%.
`COc1cc(NS(=O)(=O)c2ccc(N)cc2)nc(OC)n1` gave a protection of -9.27%.
In the case of `CN(C)CCCN1c2ccccc2Sc2ccccc21`, the protection is reported as -18.6%.
In the case of `NC(=O)N1c2ccccc2C=Cc2ccccc21`, the protection is reported as -9.41%.
`CC(=O)NC1SCCC1=O` (stereo not drawn) showed a protection of -41.5%.
Work on `CO[C@H]1C[C@H](O[C@H]2[C@H](C)[C@@H](OC3O[C@H](C)C[C@H](N(C)C)[C@H]3O)[C@@H](C)C[C@]3(CO3)C(=O)[C@H](C)[C@@H](O)[C@@H](C)[C@@H](C)OC(=O)[C@@H]2C)O[C@@H](C)[C@@H]1O` (stereo partly drawn) yielded a protection of -1.9%.

Experiment: attenuators of mutant SOD1 toxicity, cell-based (AID 1602)
Details: mutant SOD1 toxicity cell model, protection read-out; at 100 µM; stronger effect = higher value
Work on `Nc1ccc(C(=O)NCC(=O)O)cc1` yielded a normalised protection of -0.317.
Work on `CC/C(=C(/CC)c1ccc(O)cc1)c1ccc(O)cc1` yielded a normalised protection of 0.523.
With `CC[N+](C)(C)c1cccc(O)c1` the normalised protection was 0.691.
For `CN1CCN(C(c2ccccc2)c2ccc(Cl)cc2)CC1` (stereo not drawn), the normalised protection was 0.0482.
`CC(=O)CC(c1ccccc1)c1c(O)c2ccccc2oc1=O` (stereo not drawn) showed a normalised protection of 0.813.
Compound `C1CCC(C(CC2CCCCN2)C2CCCCC2)CC1` (stereo not drawn) has a normalised protection of 0.0796.
For `CCC(=O)O[C@@H](O[P@](=O)(CCCCc1ccccc1)CC(=O)N1C[C@H](C2CCCCC2)C[C@H]1C(=O)O)C(C)C`, the normalised protection was -0.29.
Work on `CC(C)NCC(O)c1ccc2ccccc2c1` (stereo not drawn) yielded a normalised protection of -0.0881.
In the case of `Fc1ccc(C(c2ccccc2)(c2ccccc2F)n2ccnc2)cc1` (stereo not drawn), the normalised protection is reported as -0.767 and -0.912.
In the case of `CC1=NN(c2ccccc2)C(=O)C1`, the normalised protection is reported as 2.01.
In the case of `O=C(O)CN(CC(=O)O)Cc1cc2c(-c3ccccc3C(=O)O)c3cc(CN(CC(=O)O)CC(=O)O)c(=O)cc-3oc2cc1O`, the normalised protection is reported as 4.82.
In the case of `CC(C)(Oc1ccc(CCNC(=O)c2ccc(Cl)cc2)cc1)C(=O)O`, the normalised protection is reported as 3.82.
For `Cc1cc(CC(=O)O)n(C)c1C(=O)c1ccc(Cl)cc1`, the normalised protection was 0.49.
Work on `O=C1NS(=O)(=O)c2ccccc21` yielded a normalised protection of 4.5.
Compound `CC(C(=O)O)c1ccc(-c2ccccc2)c(F)c1` (stereo not drawn) has a normalised protection of -0.566.
In the case of `Cc1ccc(S(=O)(=O)NC(=O)NN2CCCCCC2)cc1`, the normalised protection is reported as 4.57.
`C[C@@H]1O[C@@H](OC[C@H]2O[C@@H](Oc3c(-c4ccc(O)c(O)c4)oc4cc(O)cc(O)c4c3=O)[C@H](O)[C@@H](O)[C@@H]2O)[C@H](O)[C@H](O)[C@H]1O` gave a normalised protection of -0.47.
`Cc1cc(O)cc(C)c1Cl` showed a normalised protection of 0.547.
In the case of `NC(=NCCCCCCN=C(N)/N=C(\N)Nc1ccc(Cl)cc1)/N=C(\N)Nc1ccc(Cl)cc1`, the normalised protection is reported as 2.69.
Compound `CCCCOc1ccc(C(=O)CCN2CCCCC2)cc1` has a normalised protection of 4.27.
With `NC(=O)c1cc[n+](CC2=C(C(=O)O)N3C(=O)C(NC(=O)C(c4ccccc4)S(=O)(=O)[O-])C3SC2)cc1` (stereo not drawn) the normalised protection was -0.347.
`CCN(CC)CCOC(=O)C1(C2CCCCC2)CCCCC1` gave a normalised protection of -1.14.
Compound `CN/C(=C\[N+](=O)[O-])NCCSCc1ccc(CN(C)C)o1` has a normalised protection of 3.52.
Work on `CC(=O)N(O)CCCCCNC(=O)CCC(=O)N(O)CCCCCNC(=O)CCC(=O)N(O)CCCCCN` yielded a normalised protection of -1.03.
`CC(=O)[C@H]1CCC2C3C[C@H](C)C4=CC(=O)CC[C@]4(C)C3[C@@H](O)C[C@@]21C` (stereo partly drawn) gave a normalised protection of -0.283.
With `CC[C@H]1OC(=O)[C@H](C)[C@@H](O[C@H]2C[C@@](C)(OC)[C@@H](O)[C@H](C)O2)[C@H](C)[C@@H](O[C@@H]2O[C@H](C)C[C@H](N(C)C)[C@H]2O)[C@](C)(O)C[C@@H](C)/C(=N\OCOCCOC)[C@H](C)[C@@H](O)[C@]1(C)O` the normalised protection was 5.12.
`CN(C)CCCN1c2ccccc2CCc2ccccc21` showed a normalised protection of -0.669.
Work on `Cc1c(NC(=O)c2cccnc2)c(=O)n(-c2ccccc2)n1C` yielded a normalised protection of 2.85.
`CCCOc1ccccc1-c1nc2n[nH]nc2c(=O)[nH]1` gave a normalised protection of 2.64.

Source: PubChem BioAssay
